Test results: PubChem BioAssay AID248 (DTP/NCI, 2004)
The list is a part of this screen's results and no random one: it is rich in T/C values a quarter to a half above the control, in often repeated tests (any T/C) and in doses without a T/C. Other doses and runs of a compound stand elsewhere. T/C: endpoint of the treated group in % of that of the vehicle group. Some entries give survivors of the animals treated and no T/C: the source files T/C as zero there, which appears to mark a toxic dose or a test without result, not a measured value. Some doses without a T/C left all or most animals alive at the check, yet need not have been tolerated: the source hardly ever lists a survival T/C far under the control, and the zero likely stands for such cases as well. Survivors were counted at the toxicity check, usually on the fifth day, unless a day is given; later deaths do not show. Schedules are NCI's codes, read here as Q, the interval in days (D) or hours (H), X, the number of doses. Some schedule codes hold Z or #, which are not explained here. Some entries hold several experiments; their values stand side by side, smallest first. Where survival is the endpoint, this PubChem deposit counts one and a half times the control or more as active, and values a quarter to a half above the control carry no call in these data; other NCI protocols may use other cut-offs. Some T/C values carry the count of animals alive at the toxicity check (mostly the fifth day); where none is given, no animal had died by that day.

Test system: L1210 leukemia ip in BDF1 mice, survival T/C
Test: NCI In Vivo Anticancer Drug Screen. Data for tumor model L1210 Leukemia (intraperitoneal) in B6D2F1 (BDF1) mice
Details: T/C endpoint: mean survival time, higher T/C = longer survival
[1] = dose: 400.0 mg/kg/injection, schedule: Q04DX003 (ip), vehicle: saline
[2] = dose: 100.0 mg/kg/injection, schedule: Q04DX003 (ip), vehicle: saline

Structure (SMILES) | T/C (dose: 76.0 mg/kg/injection, schedule: Q01DX Z (ip), vehicle: carboxymethylcellulose (CMC)) | T/C (dose: 100.0 mg/kg/injection, schedule: Q01DX009 (ip), vehicle: Klucel (hydroxypropylcellulose) (HPC)) | T/C (dose: 100.0 mg/kg/injection, schedule: Q01DX009 (ip), vehicle: other) | survivor count (dose: 115.0 mg/kg/injection, schedule: Q01DX Z (ip), vehicle: methylcellulose (MC)) | survivor count (dose: 172.5 mg/kg/injection, schedule: Q01DX Z (ip), vehicle: methylcellulose (MC)) | T/C (dose: 200.0 mg/kg/injection, schedule: Q04DX003 (ip), vehicle: Klucel (hydroxypropylcellulose) (HPC)) | survivor count (dose: 400.0 mg/kg/injection, schedule: Q01DX009 (ip), vehicle: other) | survivor count (dose: 400.0 mg/kg/injection, schedule: Q01DX009 (ip), vehicle: saline) | T/C (dose: 400.0 mg/kg/injection, schedule: Q04DX003 (ip), vehicle: Klucel (hydroxypropylcellulose) (HPC)) | T/C (dose: 400.0 mg/kg/injection, schedule: Q04DX003 (ip), vehicle: other) | T/C [1] | T/C (dose: 12.5 mg/kg/injection, schedule: Q04DX003 (ip), vehicle: saline) | survivor count (dose: 50.0 mg/kg/injection, schedule: Q04DX003 (ip), vehicle: saline) | T/C [2] | survivor count [2] | survivor count (dose: 200.0 mg/kg/injection, schedule: Q04DX003 (ip), vehicle: saline) | survivor count [1]
CCCCCCC(=O)NC1=C(N2CC2)C(=O)C(NC(=O)CCCCCC)=C(N2CC2)C1=O | 126 % of control | 138 % of control [4 of 6 alive] | 147 % of control | 4 of 6 | 0 of 6 | 133 % of control | 4 of 6 | 6 of 6 | 141 % of control | 141 % of control | 127 % of control |  |  |  |  |  | 
CCCCn1ccnc1C |  |  |  |  |  |  |  |  |  |  |  | 145 % of control | 1 of 6 | 92 [4 of 6 alive] and 136 % of control | 0 of 6 and 2 of 6 | 0 of 6 | 0 of 6
